Assay results published in the supplement of paper PMC10849652.
Some of the results follow.

Protein sequences, listed by entry. Tags and fused reporters are not part of them. Lines headed by an entry give the natural chain unless they say otherwise; changes in a name come on top.
UniProt Q96SB8: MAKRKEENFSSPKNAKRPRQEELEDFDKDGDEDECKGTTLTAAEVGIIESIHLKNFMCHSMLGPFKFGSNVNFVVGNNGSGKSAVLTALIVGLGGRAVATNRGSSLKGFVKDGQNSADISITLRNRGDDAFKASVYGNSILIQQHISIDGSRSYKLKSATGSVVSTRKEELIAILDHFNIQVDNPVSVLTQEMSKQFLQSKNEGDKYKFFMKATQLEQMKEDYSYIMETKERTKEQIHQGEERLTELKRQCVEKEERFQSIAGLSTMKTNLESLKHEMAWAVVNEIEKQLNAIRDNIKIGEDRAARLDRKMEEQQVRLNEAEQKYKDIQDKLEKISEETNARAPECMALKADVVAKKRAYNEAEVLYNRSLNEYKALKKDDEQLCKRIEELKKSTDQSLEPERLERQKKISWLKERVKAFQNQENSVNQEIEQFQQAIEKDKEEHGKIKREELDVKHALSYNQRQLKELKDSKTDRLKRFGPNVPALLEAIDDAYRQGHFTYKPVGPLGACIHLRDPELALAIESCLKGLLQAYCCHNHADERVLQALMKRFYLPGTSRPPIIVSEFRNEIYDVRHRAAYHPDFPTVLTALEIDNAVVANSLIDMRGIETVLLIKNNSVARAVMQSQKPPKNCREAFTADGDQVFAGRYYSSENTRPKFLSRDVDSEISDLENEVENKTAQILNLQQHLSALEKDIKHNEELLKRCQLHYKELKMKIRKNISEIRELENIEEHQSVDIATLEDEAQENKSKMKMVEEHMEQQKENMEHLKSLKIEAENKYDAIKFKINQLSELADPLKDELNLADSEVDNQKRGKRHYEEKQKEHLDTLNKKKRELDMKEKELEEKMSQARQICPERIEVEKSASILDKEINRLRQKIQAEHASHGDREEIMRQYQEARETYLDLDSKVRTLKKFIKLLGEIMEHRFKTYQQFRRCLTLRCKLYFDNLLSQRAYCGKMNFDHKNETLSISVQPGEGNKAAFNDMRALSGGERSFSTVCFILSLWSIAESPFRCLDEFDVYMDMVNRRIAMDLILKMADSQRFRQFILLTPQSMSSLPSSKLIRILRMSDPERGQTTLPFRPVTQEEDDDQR
UniProt Q8IY18: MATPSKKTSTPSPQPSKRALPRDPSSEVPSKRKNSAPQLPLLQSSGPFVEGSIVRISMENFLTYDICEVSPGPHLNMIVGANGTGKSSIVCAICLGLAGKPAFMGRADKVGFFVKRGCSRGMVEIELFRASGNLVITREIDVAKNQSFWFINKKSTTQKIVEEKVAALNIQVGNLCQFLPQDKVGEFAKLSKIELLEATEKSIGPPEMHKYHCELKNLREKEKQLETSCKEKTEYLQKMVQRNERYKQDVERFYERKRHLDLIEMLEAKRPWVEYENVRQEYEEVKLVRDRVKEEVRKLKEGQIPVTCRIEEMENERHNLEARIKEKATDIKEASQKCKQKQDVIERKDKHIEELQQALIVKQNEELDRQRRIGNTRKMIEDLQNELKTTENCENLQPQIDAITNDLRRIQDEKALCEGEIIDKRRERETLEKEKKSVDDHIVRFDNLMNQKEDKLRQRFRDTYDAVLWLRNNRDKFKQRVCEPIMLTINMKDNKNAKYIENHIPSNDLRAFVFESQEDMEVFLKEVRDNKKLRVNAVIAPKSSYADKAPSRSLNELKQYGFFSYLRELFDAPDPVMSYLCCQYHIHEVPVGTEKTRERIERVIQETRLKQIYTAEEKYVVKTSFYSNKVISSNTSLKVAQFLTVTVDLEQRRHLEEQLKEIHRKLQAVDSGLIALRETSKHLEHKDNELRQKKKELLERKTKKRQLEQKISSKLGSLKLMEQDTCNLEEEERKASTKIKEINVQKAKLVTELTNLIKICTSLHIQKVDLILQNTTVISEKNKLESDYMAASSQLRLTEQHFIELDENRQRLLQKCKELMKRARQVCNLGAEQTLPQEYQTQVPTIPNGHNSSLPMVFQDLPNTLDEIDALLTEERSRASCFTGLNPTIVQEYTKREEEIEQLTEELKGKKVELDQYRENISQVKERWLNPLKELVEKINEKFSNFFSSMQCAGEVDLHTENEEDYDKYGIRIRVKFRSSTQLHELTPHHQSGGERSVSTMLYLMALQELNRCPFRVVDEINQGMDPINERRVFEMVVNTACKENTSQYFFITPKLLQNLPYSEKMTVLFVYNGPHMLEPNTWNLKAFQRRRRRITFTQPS
UniProt Q99523, whole entry, looked up: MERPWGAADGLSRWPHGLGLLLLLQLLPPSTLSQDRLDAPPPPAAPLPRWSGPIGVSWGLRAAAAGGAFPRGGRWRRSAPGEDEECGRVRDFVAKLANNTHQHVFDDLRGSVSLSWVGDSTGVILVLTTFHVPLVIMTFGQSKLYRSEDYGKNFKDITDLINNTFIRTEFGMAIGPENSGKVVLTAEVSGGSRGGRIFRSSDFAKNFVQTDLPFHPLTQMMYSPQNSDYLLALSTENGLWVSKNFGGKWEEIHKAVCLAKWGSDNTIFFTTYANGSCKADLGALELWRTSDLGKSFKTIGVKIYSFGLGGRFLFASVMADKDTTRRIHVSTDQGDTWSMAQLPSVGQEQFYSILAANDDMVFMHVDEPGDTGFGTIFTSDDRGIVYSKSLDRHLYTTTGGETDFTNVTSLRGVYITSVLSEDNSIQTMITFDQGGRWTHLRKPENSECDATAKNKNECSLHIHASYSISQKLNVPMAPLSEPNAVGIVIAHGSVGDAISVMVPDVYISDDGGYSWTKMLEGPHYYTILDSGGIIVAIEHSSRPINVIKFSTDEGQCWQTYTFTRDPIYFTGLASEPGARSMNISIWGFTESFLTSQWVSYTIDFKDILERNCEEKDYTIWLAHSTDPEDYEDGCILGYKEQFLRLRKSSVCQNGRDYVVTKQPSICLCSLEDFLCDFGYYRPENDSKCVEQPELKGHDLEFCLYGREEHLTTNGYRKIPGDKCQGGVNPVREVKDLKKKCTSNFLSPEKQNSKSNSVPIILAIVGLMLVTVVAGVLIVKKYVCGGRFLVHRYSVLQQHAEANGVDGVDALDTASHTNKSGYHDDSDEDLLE
UniProt Q9NXE4: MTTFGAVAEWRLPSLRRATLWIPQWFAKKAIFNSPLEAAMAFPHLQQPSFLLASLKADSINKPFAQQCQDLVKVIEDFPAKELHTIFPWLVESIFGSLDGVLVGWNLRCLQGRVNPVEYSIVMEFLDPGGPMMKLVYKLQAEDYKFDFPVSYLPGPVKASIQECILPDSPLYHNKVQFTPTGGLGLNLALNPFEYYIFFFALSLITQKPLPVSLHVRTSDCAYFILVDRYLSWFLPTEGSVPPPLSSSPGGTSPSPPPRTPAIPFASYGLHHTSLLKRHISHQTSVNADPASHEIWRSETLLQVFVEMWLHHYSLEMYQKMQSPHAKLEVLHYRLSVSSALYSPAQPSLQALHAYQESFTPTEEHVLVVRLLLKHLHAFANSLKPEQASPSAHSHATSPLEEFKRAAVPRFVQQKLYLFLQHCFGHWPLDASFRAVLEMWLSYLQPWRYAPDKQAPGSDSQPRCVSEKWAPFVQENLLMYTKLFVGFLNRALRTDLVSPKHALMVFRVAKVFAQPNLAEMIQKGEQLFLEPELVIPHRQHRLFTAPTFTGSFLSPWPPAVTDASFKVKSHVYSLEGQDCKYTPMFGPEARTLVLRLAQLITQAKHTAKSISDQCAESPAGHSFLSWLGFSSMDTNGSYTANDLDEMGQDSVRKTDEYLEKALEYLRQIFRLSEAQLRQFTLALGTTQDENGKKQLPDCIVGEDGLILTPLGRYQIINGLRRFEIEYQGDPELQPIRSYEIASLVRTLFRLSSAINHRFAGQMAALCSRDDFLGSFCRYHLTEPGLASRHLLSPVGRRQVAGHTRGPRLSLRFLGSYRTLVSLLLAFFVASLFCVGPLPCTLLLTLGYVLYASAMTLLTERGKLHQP
UniProt Q8N5G0: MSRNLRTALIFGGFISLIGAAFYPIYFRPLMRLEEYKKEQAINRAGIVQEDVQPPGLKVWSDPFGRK
UniProt O60504: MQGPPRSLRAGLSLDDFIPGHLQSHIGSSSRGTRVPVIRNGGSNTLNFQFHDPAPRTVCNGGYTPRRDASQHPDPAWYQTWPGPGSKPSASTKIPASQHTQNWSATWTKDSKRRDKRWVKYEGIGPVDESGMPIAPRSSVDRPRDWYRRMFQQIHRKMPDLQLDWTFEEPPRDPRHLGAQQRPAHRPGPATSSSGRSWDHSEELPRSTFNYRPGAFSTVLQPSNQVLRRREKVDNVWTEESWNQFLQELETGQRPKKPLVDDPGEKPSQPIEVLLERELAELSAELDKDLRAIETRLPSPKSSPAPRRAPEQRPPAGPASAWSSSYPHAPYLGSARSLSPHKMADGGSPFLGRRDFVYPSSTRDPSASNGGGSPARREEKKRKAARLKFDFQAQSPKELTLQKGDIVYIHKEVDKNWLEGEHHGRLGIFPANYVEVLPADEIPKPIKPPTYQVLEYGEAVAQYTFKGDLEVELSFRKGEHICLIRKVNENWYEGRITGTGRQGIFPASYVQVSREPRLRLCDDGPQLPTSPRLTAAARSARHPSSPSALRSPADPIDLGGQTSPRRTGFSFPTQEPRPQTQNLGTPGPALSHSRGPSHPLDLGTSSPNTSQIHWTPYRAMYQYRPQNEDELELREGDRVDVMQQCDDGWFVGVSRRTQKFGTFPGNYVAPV
UniProt P35711: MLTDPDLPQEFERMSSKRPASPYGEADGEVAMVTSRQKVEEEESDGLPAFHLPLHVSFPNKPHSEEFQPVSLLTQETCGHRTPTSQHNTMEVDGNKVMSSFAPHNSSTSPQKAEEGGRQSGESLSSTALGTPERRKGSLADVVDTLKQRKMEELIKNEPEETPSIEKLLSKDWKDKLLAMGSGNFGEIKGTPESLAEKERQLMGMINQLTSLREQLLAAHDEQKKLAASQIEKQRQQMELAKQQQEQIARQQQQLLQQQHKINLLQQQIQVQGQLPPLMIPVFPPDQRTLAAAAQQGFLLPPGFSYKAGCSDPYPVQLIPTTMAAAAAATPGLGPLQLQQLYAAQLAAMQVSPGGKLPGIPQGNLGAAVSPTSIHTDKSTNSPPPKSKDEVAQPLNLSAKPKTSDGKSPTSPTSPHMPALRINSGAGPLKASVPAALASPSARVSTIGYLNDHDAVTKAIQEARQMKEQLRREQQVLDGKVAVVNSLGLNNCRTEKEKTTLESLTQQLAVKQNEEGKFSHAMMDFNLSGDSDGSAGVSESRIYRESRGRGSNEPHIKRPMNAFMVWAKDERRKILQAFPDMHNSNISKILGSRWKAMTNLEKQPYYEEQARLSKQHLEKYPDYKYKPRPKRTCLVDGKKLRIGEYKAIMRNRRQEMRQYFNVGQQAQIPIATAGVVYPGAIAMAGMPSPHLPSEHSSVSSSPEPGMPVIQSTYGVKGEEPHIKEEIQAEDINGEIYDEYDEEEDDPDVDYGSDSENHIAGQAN
UniProt Q8IYR2: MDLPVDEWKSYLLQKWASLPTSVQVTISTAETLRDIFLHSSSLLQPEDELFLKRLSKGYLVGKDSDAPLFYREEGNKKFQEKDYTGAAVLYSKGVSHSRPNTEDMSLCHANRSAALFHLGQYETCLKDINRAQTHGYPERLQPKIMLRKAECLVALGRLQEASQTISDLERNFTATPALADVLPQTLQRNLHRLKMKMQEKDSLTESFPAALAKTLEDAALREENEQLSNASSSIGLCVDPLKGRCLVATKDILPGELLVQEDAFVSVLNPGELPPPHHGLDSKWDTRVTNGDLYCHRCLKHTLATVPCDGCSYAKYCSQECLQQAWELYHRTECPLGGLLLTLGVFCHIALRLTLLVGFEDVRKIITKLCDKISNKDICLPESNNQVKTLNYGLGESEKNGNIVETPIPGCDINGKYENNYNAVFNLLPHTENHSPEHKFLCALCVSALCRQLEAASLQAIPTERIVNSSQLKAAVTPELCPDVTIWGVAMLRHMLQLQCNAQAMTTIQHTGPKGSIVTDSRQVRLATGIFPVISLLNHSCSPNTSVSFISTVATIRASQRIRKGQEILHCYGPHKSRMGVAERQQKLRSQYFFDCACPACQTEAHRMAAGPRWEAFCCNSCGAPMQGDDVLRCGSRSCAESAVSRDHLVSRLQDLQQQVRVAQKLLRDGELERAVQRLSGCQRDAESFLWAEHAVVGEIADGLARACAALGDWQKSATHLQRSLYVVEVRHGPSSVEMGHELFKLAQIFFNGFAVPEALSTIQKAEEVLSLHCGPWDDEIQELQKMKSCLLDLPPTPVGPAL
UniProt Q8WVI0: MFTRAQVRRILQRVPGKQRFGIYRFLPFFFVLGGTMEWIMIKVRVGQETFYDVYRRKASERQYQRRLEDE
UniProt B2RUZ4: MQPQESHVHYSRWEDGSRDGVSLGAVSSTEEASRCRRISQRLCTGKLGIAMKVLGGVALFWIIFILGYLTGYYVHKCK
UniProt Q9Y343: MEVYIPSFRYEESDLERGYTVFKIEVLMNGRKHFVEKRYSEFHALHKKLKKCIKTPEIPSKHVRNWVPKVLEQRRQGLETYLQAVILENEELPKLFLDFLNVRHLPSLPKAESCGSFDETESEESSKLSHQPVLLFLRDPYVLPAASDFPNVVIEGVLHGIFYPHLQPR
UniProt P02814: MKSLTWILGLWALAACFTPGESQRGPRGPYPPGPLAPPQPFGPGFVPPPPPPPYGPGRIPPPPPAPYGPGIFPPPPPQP

Legend:
Assay in all cases: log2 fold change, soluble protein after heating vs DMSO (PISA); higher = thermal stabilisation; K562 lysate, 10 uM; active = over 0.2 and 3.5 SD of the protein, either way, in both replicates (recomputed)
[1] = compound: CN1CC[C@H](c2c(O)cc(O)c3c(=O)cc(-c4ccccc4Cl)oc23)[C@H](O)C1 [alvocidib]
Outline: (§1)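 Thermal stability, expressed as log-two fold change relative to solvent controls, is given from duplicates. Crude K562 extract in PBS pH 7.4 with 1 mM MgCl2, at 1 mg/mL protein, was treated with 10 μM compound for 30 min and heated in aliquots for 3 min across 48°C-58°C. After pooling, adjustment to 0.5% NP-40 at 4°C and centrifugation at 21,000xg for 90 min, supernatant protein was measured by TMTpro 16plex LC-MS/MS with channel sums equalised.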

[2] = compound: CN1CCc2c(c3ccccc3n2Cc2ccc(C(=O)NO)cc2)C1 [Tubastatin A]
Outline: as §1

[3] = compound: CNC(=O)C1=CC=CC=C1NC2=NC(=NC=C2Cl)NC3=C(C=C(C=C3)N4CCOCC4)OC
Outline: as §1

[4] = compound: CNC(=O)c1ccc(Nc2ncc(C(F)(F)F)c(NCc3nccnc3N(C)S(C)(=O)=O)n2)cc1 [defactinib]
Outline: as §1

[5] = compound: CNc1nc(-c2ccc3c(N)n[nH]c3c2)cc(N2C[C@@H](C(=O)NC3CCCCC3)CC[C@H]2C)n1
Outline: as §1

[6] = compound: COC(=O)N[C@@H](C)CNc1nccc(-c2cn(C(C)C)nc2-c2cc(Cl)cc(NS(C)(=O)=O)c2F)n1 [encorafenib]
Outline: as §1

[7] = compound: COC(=O)[C@H](CCSC)NC(=O)C1=C(C=C(C=C1)NC[C@H](CS)N)C2=CC=CC=C2
Outline: as §1

[8] = compound: COc1cc(Nc2ncc3c(n2)-c2ccc(Cl)cc2C(c2c(F)cccc2OC)=NC3)ccc1C(=O)O [alisertib]
Outline: as §1

[9] = compound: COc1cc2nc(-c3cc(F)ccc3O)nc(N[C@@H]3CNC[C@H]3C(C)(C)O)c2cc1OC
Outline: as §1

[10] = compound: COc1cc2ncnc(Nc3ccc(F)c(Cl)c3)c2cc1OCCCN1CCOCC1 [gefitinib]
Outline: as §1

Measured: log2 fold change

SNX17 (UniProt Q15036)
inactive: [1] -0.018 | [2] 0.017 | [3] -0.012 | [4] 0.033 | [5] -0.006 | [6] -0.006 | [7] -0.048 | [8] -0.068 | [9] -0.053 | [10] -0.03

SMC6 (UniProt Q96SB8)
inactive: [1] -0.017 | [2] -0.087 | [3] 0.049 | [4] -0.003 | [5] -0.004 | [6] -0.02 | [7] 0.045 | [8] -0.018 | [9] -0.013 | [10] 0.007

SMC1A (UniProt Q14683)
inactive: [1] 0.002 | [2] 0.011 | [3] 0.001 | [4] 0.008 | [5] -0.005 | [6] 0.009 | [7] 0.017 | [8] 0.001 | [9] 0.004 | [10] 0.001

SP6 (UniProt Q3SY56)
inactive: [1] 0.253 | [2] -0.174 | [3] 0.077 | [4] 0.034 | [5] 0.048 | [6] 0.049 | [7] -0.204 | [8] -0.315 | [9] 0.006 | [10] -0.169

SNCG (UniProt O76070)
inactive: [1] 0.007 | [2] 0.059 | [3] 0.019 | [4] 0.02 | [5] 0.09 | [6] -0.011 | [7] 0.004 | [8] 0.015 | [9] 0.007 | [10] 0

SMC5 (UniProt Q8IY18)
inactive: [1] -0.022 | [2] -0.003 | [3] -0.005 | [4] 0.007 | [5] -0.008 | [6] -0.011 | [7] 0.023 | [8] -0.035 | [9] -0.008 | [10] 0.043

2 entries drawn at random from those above:
SNCG (UniProt O76070)
inactive: [1] 0.007 | [2] 0.059 | [3] 0.019 | [4] 0.02 | [5] 0.09 | [6] -0.011 | [7] 0.004 | [8] 0.015 | [9] 0.007 | [10] 0

SNX17 (UniProt Q15036)
inactive: [1] -0.018 | [2] 0.017 | [3] -0.012 | [4] 0.033 | [5] -0.006 | [6] -0.006 | [7] -0.048 | [8] -0.068 | [9] -0.053 | [10] -0.03

Additional entries:

SNX27 (UniProt Q96L92)
inactive: [1] -0.017 | [2] -0.019 | [3] 0.026 | [4] -0.037 | [5] -0.079 | [6] -0.038 | [7] 0.052 | [8] -0.021 | [9] -0.022 | [10] -0.006

SMC3 (UniProt Q9UQE7)
inactive: [1] -0.009 | [2] 0.006 | [3] 0.003 | [4] 0.002 | [5] -0.036 | [6] -0.007 | [7] 0.002 | [8] 0.005 | [9] -0.013 | [10] -0.005

SMARCC2 (UniProt Q8TAQ2)
inactive: [1] -0.014 | [2] -0.039 | [3] -0.002 | [4] 0.016 | [5] -0.016 | [6] 0.007 | [7] 0.032 | [8] -0.009 | [9] -0.012 | [10] -0.025

SORT1 (UniProt Q99523)
inactive: [1] -0.018 | [2] 0.008 | [3] -0.033 | [4] -0.004 | [5] -0.003 | [6] 0.023 | [7] -0.012 | [8] -0.057 | [9] -0.005 | [10] 0.036

SMPD4 isoform 4 (UniProt Q9NXE4)
inactive: [1] 0.066 | [2] 0.311 | [4] -0.07 | [6] 0.012 | [7] -0.36 | [8] -0.134 | [10] 0.088

SMPDL3B (UniProt Q92485)
inactive: [1] 0.221 | [2] 0.04 | [4] 0.116 | [5] 0.005 | [6] -0.081 | [7] -0.029 | [9] -0.044

SNX4 (UniProt O95219)
inactive: [1] -0.01 | [2] -0.016 | [3] 0.007 | [4] -0.044 | [5] -0.029 | [6] -0.004 | [7] 0.004 | [8] -0.092 | [10] -0.11

SMIM20 isoform 2 (UniProt Q8N5G0)
inactive: [1] 0.069 | [3] -0.035 | [4] -0.029 | [5] 0.08 | [8] -0.001 | [9] -0.057 | [10] -0.075

SNX29 (UniProt Q8TEQ0)
inactive: [1] -0.114 | [2] -0.324 | [3] -0.038 | [6] -0.057 | [7] -0.195 | [8] -0.055 | [10] -0.129

SP4 (UniProt Q02446)
inactive: [1] -0.075 | [2] 0.118 | [3] 0.032 | [4] 0.057 | [5] 0.008 | [6] -0.037 | [7] -0.028 | [9] -0.067

SORBS3 (UniProt O60504)
inactive: [1] 0 | [2] -0.095 | [3] 0.032 | [4] -0.062 | [5] 0.059 | [6] 0.02 | [7] -0.143 | [9] 0.065

SNUPN (UniProt O95149)
inactive: [1] 0.012 | [2] 0.028 | [3] -0.173 | [4] -0.066 | [6] 0.006 | [7] 0.155 | [8] -0.007 | [9] -0.009 | [10] 0.076

SOX5 (UniProt P35711)
inactive: [1] 0.048 | [2] -0.113 | [3] -0.219 | [4] 0.017 | [5] 0.074 | [6] 0.034 | [7] -0.025 | [9] -0.104

SNRPN isoform 2 (UniProt P63162)
inactive: [1] -0.038 | [3] 0.086 | [4] -0.138 | [6] 0.024 | [7] 0.028 | [9] -0.144

SNAP23 isoform 2 (UniProt O00161)
inactive: [1] -0.323 | [2] -0.202 | [3] 0.029 | [4] -0.118 | [6] -0.295 | [7] 0.071 | [8] -0.15 | [9] -0.152 | [10] 0.016

SMIM26, A0A096LP01
inactive: [1] 0.009 | [2] -0.011 | [8] -0.081 | [10] 0.101

SNX19 (UniProt Q92543)
inactive: [1] 0.022 | [2] -0.047 | [3] -0.014 | [5] 0.085 | [6] 0.03 | [7] 0.047 | [8] -0.06 | [10] 0.134

SMYD4 (UniProt Q8IYR2)
inactive: [1] -0.235 | [2] 0.02 | [3] -0.003 | [5] 0.077

SOHLH2 isoform 3 (UniProt Q9NX45)
inactive: [1] -0.014 | [2] -0.04 | [3] -0.001 | [5] -0.119 | [6] 0.047 | [7] -0.032 | [8] -0.009 | [9] -0.008 | [10] 0.066

SMIM4 (UniProt Q8WVI0)
inactive: [1] 0.099 | [2] 0.008 | [8] 0.05 | [9] 0.088 | [10] 0.025

SOX6 (UniProt P35712)
inactive: [1] -0.01 | [2] -0.032 | [3] 0.029 | [4] 0.038 | [5] -0.192 | [6] -0.011 | [7] -0.12 | [8] -0.008 | [10] -0.006

SMIM1 (UniProt B2RUZ4)
inactive: [1] -0.031 | [2] 0.123 | [3] 0.097 | [6] 0.226 | [7] -0.07 | [8] -0.149 | [9] 0.022 | [10] -0.279

SNX24 (UniProt Q9Y343)
inactive: [1] 0.005 | [2] -0.09 | [3] 0.049 | [5] -0.09 | [6] 0.035 | [7] -0.072 | [8] 0.116 | [10] 0.175

SMU1 isoform 2 (UniProt Q2TAY7)
inactive: [1] -0.136 | [2] 0.274 | [3] 0.01 | [4] -0.115 | [6] 0 | [7] 0.011 | [8] 0.247 | [9] 0.019 | [10] -0.077

SMR3B (UniProt P02814)
inactive: [1] 0.088 | [2] 0.34 | [6] -0.001 | [7] 0.185

SMARCA4 isoform 4 (UniProt P51532)
inactive: [1] 0.078 | [2] 0.106 | [3] -0.008 | [5] 0.024 | [6] -0.315 | [7] 0.04 | [8] -0.046 | [9] -0.038 | [10] -0.116

SNAPC2 (UniProt Q13487)
inactive: [1] -0.034 | [2] -0.117 | [3] -0.005 | [5] -0.175 | [8] 0.014 | [10] -0.044
